Patent publication US12123028B2, “Viral inactivation methods for continuous manufacturing of antibodies” (Bayer HealthCare LLC, priority 2018, dated 2024)
Some results were stated once for a whole list of compounds, not compound by compound. For at least one compound, name, drawing or mass did not settle the structure.

Tested on: X-MuLV
Test: Dual X-MuLV inactivation by low pH and detergent in mAb protein A eluate, remaining infectivity by TCID50 assay on PG-4 cells
Type: cell-based, Xenotropic Murine Leukemia Virus
Details: low pH protein A eluate with low concentration of detergent; versus 1-2 hours (60-120 minutes) by low pH treatment alone
Description: […] The pH adjusted eluates were then filtered by a 0.22 um filter. Various volumes of 5% detergent stock solution were then added to the filtered protein A eluates. The low pH protein A eluates containing Mega-10, Tween 80 or Tween 20 were pre-incubated at a 16° C. water bath prior to spiking with X-MuLV at a 1:20 ratio. After a thorough mixing, an aliquot of sample was removed immediately and neutralized with 1 M Tris buffer to stop low pH viral inactivation, then immediately quenched with diluent at 1:12 for Mega-10 or at 1:100 for Tween 20 and Tween 80 to stop viral inactivation by the detergent. The collected sample was designated as a time-zero reference. […] The remaining X-MuLV infectivity in the samples post-inactivation treatment was determined by a TCID50 assay that is an endpoint dilution assay to quantify the amount of virus required to produce a cytopathic effect in 50% of inoculated tissue culture cells. Virus titers were estimated using the Spearman-Karber method and reported as TCID50/mL with a calculated 95% confidence interval (CI). […] Each well of the plates were scored under a microscope for the presence of cytopathic effect (CPE) and the results were recorded in a scoring sheet. Virus titers were then estimated using the Spearman-Karber method and reported as TCID50/mL with a calculated 95% confidence interval (CI).

Row | SMILES | time needed for inactivating X-MuLV to the level below detection limit by the dual treatment (summary)
1 | CCCCCCCCCC(=O)N(C)C[C@H](O)[C@@H](O)[C@H](O)[C@H](O)CO [Mega-10, N-Methylglucamide] | 2.5 to 10 min
2 | CCCCCCCC/C=C\CCCCCCCC(=O)OCCOCC(OCCO)C1OCC(OCCO)C1OCCO (centres unmarked) [Tween 80] | 2.5 to 10 min
